These are yes or no findings as the source states them, for the method shown. Some entries that bind do so weakly or less than the wild type.
T1: Claudin 9 (UniProt O95484 1-217)
T1 construct: Octet KD values: intact claudin protein embedded in virus-like particles (lipoparticles); also called CLDN9
T1 sequence (looked up): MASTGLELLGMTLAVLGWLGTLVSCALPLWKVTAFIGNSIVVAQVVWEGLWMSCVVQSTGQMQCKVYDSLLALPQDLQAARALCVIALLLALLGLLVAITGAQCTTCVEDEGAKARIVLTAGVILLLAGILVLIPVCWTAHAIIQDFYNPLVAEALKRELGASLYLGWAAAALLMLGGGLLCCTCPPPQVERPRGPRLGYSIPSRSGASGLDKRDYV

T2: Claudin 4 (UniProt O14493 1-209)
T2 construct: also called CLDN4
T2 sequence (looked up): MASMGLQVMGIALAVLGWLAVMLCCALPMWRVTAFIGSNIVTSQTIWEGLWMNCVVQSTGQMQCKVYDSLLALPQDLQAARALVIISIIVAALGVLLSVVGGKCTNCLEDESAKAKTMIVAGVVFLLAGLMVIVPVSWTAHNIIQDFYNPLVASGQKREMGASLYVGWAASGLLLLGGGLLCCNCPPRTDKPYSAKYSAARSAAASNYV

T3: Claudin 3 (UniProt O15551 1-220)
T3 construct: also called CLDN3
T3 sequence (looked up): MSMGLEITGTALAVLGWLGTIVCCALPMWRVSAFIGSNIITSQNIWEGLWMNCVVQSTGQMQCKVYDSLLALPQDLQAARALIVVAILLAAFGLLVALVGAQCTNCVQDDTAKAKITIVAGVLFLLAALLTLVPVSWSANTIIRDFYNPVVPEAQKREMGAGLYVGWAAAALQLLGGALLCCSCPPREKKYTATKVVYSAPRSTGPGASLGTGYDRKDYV


Tests used:
[1] = molecular target: T1, Claudin 9; assay: flow cytometry, HEK-293T cells transiently transfected with the indicated claudin; pUC19 = empty vector control
Procedure: (§1) FIG. 2 illustrates the results of a binding assay showing that Claudin 6 MAbs bind to human Claudin 6 preferentially over other Claudin proteins. Human embryonic kidney 293T (HEK-293T) cells were transiently transfected with DNA for the indicated Claudin protein or empty vector along with GFP (pUC) for 22 hours.

[2] = molecular target: T2, Claudin 4; assay: as above
Procedure: as §1

[3] = molecular target: T3, Claudin 3; assay: as above
Procedure: as §1

[4] = molecular target: T2, Claudin 4; assay: binding assay of the 13th table, method not described
[5] = molecular target: T3, Claudin 3; assay: as above
[6] = molecular target: T1, Claudin 9; assay: as above

| Binder | binding [1] | binding [2] | binding [4] | binding [6] | further results |
| --- | --- | --- | --- | --- | --- |
| IM171 (antibody, V domains shown, Detected with anti-human IgG Fc secondary; also called LM171) VH: AVTLDESGGGLQTPGGALSLVCKASGFDFSSYAMNWVRQAPGKGLEWVAGIGSTGSSTGYGPAVKGRATISRDNGQSTLRLQLNNLRAEDTAIYYCAKSVGNGNSWSGYIATSIDAWGHGTEVIVSS VL: ALTQPSSVSANLGGTVKLTCSGGSSGYGWYQQKSPGSAPVTVIYSNDKRPSDIPSRFSGSLSGSTGTLTITGVQADDEAVYFCGSTDNSYVGIFGAGTTLTVL | binds | – | – | – | – |
| IM172 (antibody, V domains shown, Detected with anti-human IgG Fc secondary) VH: AVTLDESGGGLQTPGGALSLVCKGSGFSISSYTMQWVRQAPGKGLEWVAGIYSGSRTYYGAAVQGRATISRDNGQSTVRLQLNNLRAEDTGTYYCAKSSYCTAWTGCDVYAGGSIDAWGHGTEVIVSS VL: ALTQPSSVSATPGGTVEITCSGDSSDDGSYYYGWYQQKSPGSAPVTVIYSNDKRPSSIPSRFSGSASGSTATLTITGVQADDEAVYFCGSYDSSTGIFGAGTTLTVL | binds | binds | – | – | binding [3]: binds |
| IM173 (antibody, V domains shown, Detected with anti-human IgG Fc secondary) VH: AVTLDESGGGLQTPGGALSLVCKASGFTFSSYSMFWVRRAPGKGLEWVAGIDSGSTTFYGSAVKGRATISRDNGQSTVRLQLNNLRAEDTATYYCAKDAYGYCGWSGCSADSIDAWGHGTEVIVSS VL: ALTQPSSVSANPGGTVEITCSGGNNYYGWYQQKSPGSAPVTVIYYNDKRPSDIPSRFSGSKSGSTGTLTITGVQADDEAVYFCGGWDSSGGIFGAGTTLTVL | – | binds | – | – | – |
| IM-35-N1F09-1HA (antibody, V domains shown) VH: EVQLLESGGGLVQPGGSLRLSCAASGFTFSSYGMSWVRQAPGKGLEWVAGIGSSGIYTHYADSVKGRFTISRDNSKNTLYLQMNSLRAEDTAVYYCAKSPGDSDWCGWAGYGIYSCRVAGFIDAWGQGTLVTVSS VL: SYELTQPPSVSVSPGQTARITCSGGYNGHYGWYQQKPGQAPVLVIYGTNKRPSGIPERFSGSSSGTTVTLTISGVQAEDEADYYCGGYDSSAGIFGGGTKLTVL | – | – | binds | binds | binding [5]: binds |
| IM-271-1HGT (antibody, V domains shown, also called CH-HAMF5-1HGT) VH: EVQLLESGGGLVQPGGSLRLSCAASGFTFSSYAMNWVRQAPGKGLEWVAGISSSGRYTGYADSVKGRFTISRDNSKNTLYLQMNSLRAEDTAVYYCAKSVGSGVSWSGYVATSLDVWGQGTLVTVSS VL: SYELTQPPSVSVSPGQTARITCSAGSGLYGWYQQKPGQAPVLVIYGTNKRPSGIPERFSGSSSGTTVTLTISGVQAEDEADYYCGSNDASTNAGIFGGGTKLTVL | – | – | binds | binds | – |
| IM-35-N2H07-1HA (antibody, V domains shown) VH: EVQLLESGGGLVQPGGSLRLSCAASGFTFSGYAMSWVRQAPGKGLEWVAGIYSSGSYTFYADSVKGRFTISRDNSKNTLYLQMNSLRAEDTAVYYCAKGTGYCDWSGWCYSGAANIDAWGQGTLVTVSS VL: SYELTQPPSVSVSPGQTARITCSGGSGSYGYYGWYQQKPGQAPVLVIYGTNKRPSGIPERFSGSSSGTTVTLTISGVQAEDEADYYCGSEDSSSGAGIFGGGTKLTVL | – | – | – | binds | – |

From patent US20220127355A1 (INTEGRAL MOLECULAR, published 2022)
